PubChem BioAssay AID504834 (National Center for Advancing Translational Sciences (NCATS), 2011)
The campaign covered roughly 320,000 compounds. About 22,000 (6.9%) were called active. Inconclusive means that the source gave no clear call. Such entries were picked first, then a sample of the others. Calls come from the whole dose curve; as a rule, active = well fitted inhibition curve with a large enough effect; inconclusive = small, poorly fitted or top-dose-only effect, or another doubt; inactive = no such curve, though single readings can be large or run the other way. A potency beside an inconclusive call is a rough fit, not a confirmed value.

experiment: Primary qHTS for delayed death inhibitors of the malarial parasite plastid, 96 hour incubation; conditions: P. falciparum luciferase reporter growth; series mostly up to 28.7 µM; activity change, negative = inhibition: at the top concentration
Method in brief: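 Erythrocytes infected with luciferase-expressing P. falciparum were dispensed at 2% hematocrit and 0.05% parasitemia (final), then incubated with compounds 96 hours at 37 C in 5% CO2. Luminescence after detection reagent addition reported growth.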
% is set by controls: 0 for no effect and ±100 for the full control effect; potency is the fitted concentration of half-maximal effect.

Row | Structure (SMILES) | activity change, negative = inhibition | Potency
1 | O=C(c1cc(COc2ccc(F)cc2Cl)on1)N1CCCCCC1 | inactive: 0.506% | 
2 | S=c1[nH]nc(-c2cccc(Cl)c2)n1Cc1ccccc1 | inactive: 67.9% | 
3 | O=C(CCc1nnc(-c2ccc3c(c2)OCO3)o1)N1CCC(c2ccc(F)cc2)C1 (stereo not drawn) |  | inconclusive: 18.5 µM [inhibitor, single point]
4 | CC1=C(C(=O)NCCN2CCN(C)CC2)C2(CCC(C)CC2)OC1=O (stereo not drawn) | inactive: 0% | 
5 | CCN(CC)CCn1c(/N=C/c2cc(Br)ccc2O)nc2ccccc21 |  | inconclusive: 18.5 µM [inhibitor, single point]
6 | CCOC(=O)N1CCC(NC(=O)c2cc(S(=O)(=O)N(CC)CC)ccc2F)CC1 |  | inconclusive: 4.65 µM [inhibitor, partial curve, poor fit]
7 | COc1cc2c(cc1OC)C1=C(C#N)CN(CC(=O)O)CN1CC2 |  | inconclusive: 18.5 µM [inhibitor, single point]
8 | COc1cc(NC(=O)CSc2nc(C)c(C)c(C)n2)c(C)cc1[N+](=O)[O-] |  | inconclusive: 11.7 µM [inhibitor, single point]
9 | COc1ccc(NC(=O)CCC(=O)Nc2cc(OC)c(NC(=O)c3cccs3)cc2OC)cc1 |  | inconclusive: 11.7 µM [inhibitor, single point]
10 | CCOC(=O)c1cc(S(=O)(=O)NC2CCN(C(=O)OCC)CC2)cn1C |  | inconclusive: 14.7 µM [inhibitor, single point]
11 | CN(C)S(=O)(=O)n1cc(/C=C(\NC(=O)c2ccccc2Cl)C(=O)NCCCN2CCOCC2)c2ccccc21 |  | inconclusive: 10.4 µM [inhibitor, partial curve, poor fit]
12 | CC(C)(C)OC(=O)NCCCCCc1nnc(SCc2ccc(F)cc2)o1 |  | inconclusive: 10.4 µM [inhibitor, partial curve, poor fit]
13 | Cc1ccc(S(=O)(=O)c2nc(S(C)(=O)=O)sc2N2CCC3(CC2)OCCO3)cc1 |  | inconclusive: 11.7 µM [inhibitor, single point]
14 | O=C(CN1C(=O)c2ccccc2S1(=O)=O)N1CCc2ccccc21 |  | inconclusive: 0.928 µM [inhibitor, partial curve, poor fit]
15 | Cn1cc(S(=O)(=O)N2CCC(C(N)=O)CC2)c(=O)n(C)c1=O | inactive: 44.4% | 
16 | Nn1c(SCc2cccc3ccccc23)nnc1-c1ccco1 | inactive: 32.3% | 
17 | CCOc1ccccc1CNS(=O)(=O)c1ccc2c(c1)C(C)(C)C(=O)N2C |  | inconclusive: 0.329 µM [inhibitor, partial curve, poor fit]
18 | CN(C)S(=O)(=O)c1ccc(NC(=O)c2cc(-c3cccs3)nc3ccccc23)cc1 |  | inconclusive: 18.5 µM [inhibitor, single point]
19 | COC(=O)C1Sc2[nH]c(=O)sc2C(c2ccc(Cl)cc2)C1C(=O)OC (stereo not drawn) |  | inconclusive: 16.5 µM [inhibitor, partial curve, poor fit]
20 | CCOC(=O)CSc1nc(=O)n2cc(C)ccc2n1 | inactive: -2.92% | 
21 | O=c1c2ccccc2oc2nc3ccn(Cc4ccncc4)c(=O)c3cc12 |  | inconclusive: 5.22 µM [inhibitor, partial curve, poor fit]
22 | CC(C)(C)C1CCC2(CC1)SCC(=O)N2c1ccccc1 (stereo not drawn) | inactive: 95% | 

Row | Structure (SMILES) | activity change, negative = inhibition | Potency
23 | CCOc1ccccc1N(C)S(=O)(=O)c1ccc2c(c1)CC(C)N2C(=O)C1CC1 (stereo not drawn) |  | inconclusive: 3.7 µM [inhibitor, partial curve]
24 | Clc1ccc(-c2noc(CN3CCCC3)n2)cc1 |  | inconclusive: 18.5 µM [inhibitor, partial curve, poor fit]
25 | COc1ccc2[nH]cc(S(=O)(=O)c3ccc(F)cc3)c(=O)c2c1 |  | inconclusive: 18.5 µM [inhibitor, single point]
26 | O=C(C(Cc1ccccc1)NS(=O)(=O)c1cccc2cccnc12)N1CCc2ccccc21 (stereo not drawn) |  | inconclusive: 18.5 µM [inhibitor, single point]
27 | CCN(CC)CCCNC(=O)C1CCN(C(=O)c2oc3cc4sc(N(C)C)nc4cc3c2C)CC1 |  | active: 11.7 µM
28 | COc1ccc(NC(=O)c2cnc(C)cn2)cc1-n1cnnn1 |  | inconclusive: 13.1 µM [inhibitor, single point]
29 | O=C(CSc1nnc(CNc2ccc(F)cc2)n1Cc1ccco1)N1CCOCC1 |  | inconclusive: 0.0208 µM [inhibitor, full curve, poor fit]
30 | Cc1cc2n(n1)C(c1ccc(O)cc1)Nc1ccccc1-2 (stereo not drawn) |  | inconclusive: 4.15 µM [inhibitor, partial curve, poor fit]
31 | O=[N+]([O-])c1ccc(CCNc2cccc3ccccc23)c([N+](=O)[O-])c1 |  | inconclusive: 13.1 µM [inhibitor, single point]
32 | O=C(/C=C/c1ccc(F)cc1)c1cc(Br)ccc1O | inactive: -1.15% | 
33 | Cc1ccc(CNC(=O)c2cc3c(s2)CN(Cc2ccccc2)C3)cc1 |  | inconclusive: 18.5 µM [inhibitor, single point]
34 | Cc1ccc(NC(=O)CSc2nc3ncc(Cl)cc3[nH]2)c(C)c1 | inactive: 4.03% | 
35 | CN(C(=O)c1cccc(C(F)(F)F)c1)C1CCCc2ccccc21 (stereo not drawn) | inactive: -22.2% | 
36 | COc1ccc(C(=O)CSc2nnc(-c3ccccc3)o2)cc1 |  | inconclusive: 1.04 µM [inhibitor, partial curve, poor fit]
37 | Clc1ccccc1Nc1ncnc2c1nnn2Cc1ccccc1 |  | inconclusive: 0.0657 µM [inhibitor, full curve, poor fit]
38 | COc1cc(NC(=O)c2noc3c2CCC3)c(OC)cc1Cl | inactive: 462% | 
39 | COCCNC(=O)Cn1nc(-c2ccc(C)cc2)ccc1=O |  | inconclusive: 2.94 µM [inhibitor, partial curve]
40 | CC(=O)c1cccc(NC(=O)C2CC(=O)N(c3ccc4c(c3)OCCO4)C2)c1 (stereo not drawn) | inactive: -26.1% | 
41 | O=C(N/N=C/c1cccnc1)c1ccccc1[N+](=O)[O-] | inactive: 0.247% | 
42 | CCOc1c(Br)cc(/C=C(\C#N)C(=O)NC2CC2)cc1OC |  | inconclusive: 1.04 µM [inhibitor, partial curve, poor fit]
43 | O=C(COC(=O)Cc1ccccc1F)Nc1ccc(SC(F)F)cc1 |  | inconclusive: 18.5 µM [inhibitor, single point]

As entered above:
`CCN(CC)CCn1c(/N=C/c2cc(Br)ccc2O)nc2ccccc21` | Potency: inconclusive: 18.5 µM [inhibitor, single point]
`O=C(N/N=C/c1cccnc1)c1ccccc1[N+](=O)[O-]` | activity change, negative = inhibition: inactive: 0.247%
`CCOC(=O)N1CCC(NC(=O)c2cc(S(=O)(=O)N(CC)CC)ccc2F)CC1` | Potency: inconclusive: 4.65 µM [inhibitor, partial curve, poor fit]
